In patent publication US9765299B2, “Chemically defined albumin-free conditions for cardiomyocyte differentiation of human pluripotent stem cells” (Wisconsin Alumni Research Foundation, priority 2014, dated 2017):
Some entries share one result that the patent states for a list of compounds.

System: ES03 hESCs
Experiment: hPSC differentiation to cardiomyocytes (GiWi protocol), purity by flow cytometry of cTnT expression
Type: cell-based, human

| SMILES | cTnT+ cells (2.5 μM IWP2, albumin-free media) | cTnT+ cells (6 μM CH, RPMI supplemented with 3 factors (sodium selenite, progesterone, putrescine), absence of albumin) |
| --- | --- | --- |
| Cc1ccc2nc(NC(=O)CSc3nc4c(c(=O)n3-c3ccccc3)SCC4)sc2c1 [IWP2, N-(6-Methyl-2-benzothiazolyl)-2-[(3,4,6,7-tetrahydro-4-oxo-3-phenylthieno[3,2-d]pyrimidin-2-yl)thio]-acetamide] | more than 90% |  |
| Cc1c[nH]c(-c2cnc(NCCNc3ccc(C#N)cn3)nc2-c2ccc(Cl)cc2Cl)n1 [CH] |  | more than 90% |
